# From the supplement of paper PMC10032668
# Sequences of proteins named here, by UniProt entry; tags and fusion partners are left off.
# IGF2BP3, O00425, UniProt O00425, whole entry: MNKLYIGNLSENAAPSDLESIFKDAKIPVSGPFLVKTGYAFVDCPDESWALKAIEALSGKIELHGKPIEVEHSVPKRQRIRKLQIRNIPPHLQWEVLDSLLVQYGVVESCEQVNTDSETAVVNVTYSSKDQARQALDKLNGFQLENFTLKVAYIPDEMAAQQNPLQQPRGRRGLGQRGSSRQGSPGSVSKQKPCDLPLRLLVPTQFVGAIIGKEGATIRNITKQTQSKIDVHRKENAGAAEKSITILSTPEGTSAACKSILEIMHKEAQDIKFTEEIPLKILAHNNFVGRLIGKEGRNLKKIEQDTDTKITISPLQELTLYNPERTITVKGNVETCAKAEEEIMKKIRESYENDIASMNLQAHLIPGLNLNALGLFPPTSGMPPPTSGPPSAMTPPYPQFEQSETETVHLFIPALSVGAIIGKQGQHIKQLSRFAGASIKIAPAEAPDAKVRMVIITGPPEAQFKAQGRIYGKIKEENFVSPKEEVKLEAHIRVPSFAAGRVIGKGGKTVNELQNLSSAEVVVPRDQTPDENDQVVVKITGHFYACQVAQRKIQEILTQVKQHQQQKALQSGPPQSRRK
# KPNA1, P52294, UniProt P52294, whole entry: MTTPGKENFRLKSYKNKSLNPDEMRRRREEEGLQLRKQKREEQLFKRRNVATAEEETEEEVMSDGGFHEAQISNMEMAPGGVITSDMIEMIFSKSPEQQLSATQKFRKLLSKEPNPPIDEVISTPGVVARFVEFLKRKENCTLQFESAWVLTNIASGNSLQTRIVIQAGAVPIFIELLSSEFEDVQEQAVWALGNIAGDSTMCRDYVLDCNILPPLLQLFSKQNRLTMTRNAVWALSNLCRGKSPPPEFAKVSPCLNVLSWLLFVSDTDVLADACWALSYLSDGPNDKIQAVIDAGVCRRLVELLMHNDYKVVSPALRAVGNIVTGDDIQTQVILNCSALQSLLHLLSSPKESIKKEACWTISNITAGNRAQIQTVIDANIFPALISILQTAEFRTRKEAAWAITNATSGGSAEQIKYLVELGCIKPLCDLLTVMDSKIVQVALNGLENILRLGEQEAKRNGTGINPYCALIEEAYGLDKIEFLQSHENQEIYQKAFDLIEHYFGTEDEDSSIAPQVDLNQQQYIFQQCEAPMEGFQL
# The other results are listed elsewhere or left out. The list holds hits alone, and they repeat only in part.
# Assays:
# Test in all cases: PRISMA enrichment of interactor (LFQ) in peptide spot vs all other peptide spots (log2 fold change); higher = stronger / more specific binding of the interactor to the peptide
# [1] = target: ACIN1, Q9UKV3
# Method: (§1)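 PRISMA: 221 full-length sORF-encoded peptides (3-15 aa), plus SOS1/GLUT1 control peptides, were spot-synthesized on cellulose membranes in triplicate. Membranes were incubated with HEK293T lysate, and bound proteins were identified by LC-MS/MS with LFQ. Enrichment is the log2 fold change versus all other peptide spots; only significant interactors are listed (cutoff c=6, x0=2.8).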
# [2] = target: ANP32A, P39687
# Method: as §1
# [3] = target: ANP32B, Q92688
# Method: as §1
# [4] = target: ANP32E, Q9BTT0
# Method: as §1
# [5] = target: BRIX1, Q8TDN6
# Method: as §1
# [6] = target: CDC73, Q6P1J9
# Method: as §1
# [7] = target: CTR9, Q6PD62
# Method: as §1
# [8] = target: DAP3, P51398
# Method: as §1
# [9] = target: DDX21, Q9NR30
# Method: as §1
# [10] = target: EBNA1BP2, Q99848
# Method: as §1
# [11] = target: EIF2A, Q9BY44
# Method: as §1
# [12] = target: EIF6, P56537
# Method: as §1
# [13] = target: GNL2, Q13823
# Method: as §1
# [14] = target: GPC4, O75487
# Method: as §1
# [15] = target: GRSF1, Q12849
# Method: as §1
# [16] = target: GRWD1, Q9BQ67
# Method: as §1
# [17] = target: GTPBP4, Q9BZE4
# Method: as §1
# [18] = target: HTATSF1, O43719
# Method: as §1
# [19] = target: IGF2BP3, O00425
# Method: as §1
# [20] = target: KPNA1, P52294
# Method: as §1
# [21] = target: LARP1, Q6PKG0
# Method: as §1
# [22] = target: LARP7, Q4G0J3
# Method: as §1
# [23] = target: LTV1, Q96GA3
# Method: as §1
# [24] = target: MAGEB2, O15479
# Method: as §1
# [25] = target: MOV10, Q9HCE1
# Method: as §1
# [26] = target: MRPL10, Q7Z7H8
# Method: as §1
# [27] = target: MRPS2, Q9Y399
# Method: as §1
# [28] = target: MRPS27, Q92552
# Method: as §1
# [29] = target: MRPS31, Q92665
# Method: as §1
# [30] = target: MRPS34, P82930
# Method: as §1
# [31] = target: MRPS35, P82673
# Method: as §1
# [32] = target: MRPS7, Q9Y2R9
# Method: as §1
# [33] = target: MRPS9, P82933
# Method: as §1
# [34] = target: MRTO4, Q9UKD2
# Method: as §1
# [35] = target: NAT10, Q9H0A0
# Method: as §1
# [36] = target: NOB1, Q9ULX3
# Method: as §1
# [37] = target: NOP2, P46087
# Method: as §1
# [38] = target: PAF1, Q8N7H5
# Method: as §1
# [39] = target: PELP1, Q8IZL8
# Method: as §1
# [40] = target: PTCD3, Q96EY7
# Method: as §1
# [41] = target: RIOK1, Q9BRS2
# Method: as §1
# [42] = target: RO60, P10155
# Method: as §1
# [43] = target: RPLP1, P05386
# Method: as §1
# [44] = target: RPS29, P62273
# Method: as §1
# [45] = target: RSL1D1, O76021
# Method: as §1
# [46] = target: SART3, Q15020
# Method: as §1
# [47] = target: SET, Q01105
# Method: as §1
# [48] = target: STAU1, O95793
# Method: as §1
# [49] = target: SUPT5H, O00267
# Method: as §1
# [50] = target: SUPT6H, Q7KZ85
# Method: as §1
# [51] = target: TOP1, P11387
# Method: as §1
# [52] = target: TSR1, Q2NL82
# Method: as §1
# [53] = target: UPF1, Q92900
# Method: as §1
# [54] = target: ZRANB2, O95218
# Method: as §1
# [55] = target: ACO2, Q99798
# Method: as §1
# [56] = target: CPSF2, Q9P2I0
# Method: as §1
# [57] = target: HELLS, Q9NRZ9
# Method: as §1
# [58] = target: IARS2, Q9NSE4
# Method: as §1
# [59] = target: LSM4, Q9Y4Z0
# Method: as §1
# [60] = target: RUVBL1, Q9Y265
# Method: as §1
# [61] = target: RUVBL2, Q9Y230
# Method: as §1
# [62] = target: TOMM34, Q15785
# Method: as §1
# [63] = target: ACAT2, Q9BWD1
# Method: as §1
# [64] = target: CHPT1, Q8WUD6
# Method: as §1
# [65] = target: GCOM1
# Method: as §1
# [66] = target: GPATCH8, Q9UKJ3
# Method: as §1
# [67] = target: PDF, Q9HBH1
# Method: as §1
binder,measurement,setting,value
MQAGKRN [PKIG],PRISMA enrichment of interactor (log2),[1],5.51
same,PRISMA enrichment of interactor (log2),[2],6.61
same,PRISMA enrichment of interactor (log2),[3],7.24
same,PRISMA enrichment of interactor (log2),[4],7.69
same,PRISMA enrichment of interactor (log2),[5],5.03
same,PRISMA enrichment of interactor (log2),[6],5.33
same,PRISMA enrichment of interactor (log2),[7],6.13
same,PRISMA enrichment of interactor (log2),[8],5.07
same,PRISMA enrichment of interactor (log2),[9],6.46
same,PRISMA enrichment of interactor (log2),[10],5.58
same,PRISMA enrichment of interactor (log2),[11],4.46
same,PRISMA enrichment of interactor (log2),[12],6.71
same,PRISMA enrichment of interactor (log2),[13],5.72
same,PRISMA enrichment of interactor (log2),[14],5.59
same,PRISMA enrichment of interactor (log2),[15],4.7
same,PRISMA enrichment of interactor (log2),[16],5.48
same,PRISMA enrichment of interactor (log2),[17],6.14
same,PRISMA enrichment of interactor (log2),[18],7.33
same,PRISMA enrichment of interactor (log2),[19],5.6
same,PRISMA enrichment of interactor (log2),[20],5.76
same,PRISMA enrichment of interactor (log2),[21],6.63
same,PRISMA enrichment of interactor (log2),[22],4.99
same,PRISMA enrichment of interactor (log2),[23],4.69
same,PRISMA enrichment of interactor (log2),[24],5.52
same,PRISMA enrichment of interactor (log2),[25],6.19
same,PRISMA enrichment of interactor (log2),[26],5.13
same,PRISMA enrichment of interactor (log2),[27],4.84
same,PRISMA enrichment of interactor (log2),[28],5.59
same,PRISMA enrichment of interactor (log2),[29],5.95
same,PRISMA enrichment of interactor (log2),[30],5.67
same,PRISMA enrichment of interactor (log2),[31],5.46
same,PRISMA enrichment of interactor (log2),[32],5.09
same,PRISMA enrichment of interactor (log2),[33],6.18
same,PRISMA enrichment of interactor (log2),[34],4.63
same,PRISMA enrichment of interactor (log2),[35],6.03
same,PRISMA enrichment of interactor (log2),[36],4.96
same,PRISMA enrichment of interactor (log2),[37],5.31
same,PRISMA enrichment of interactor (log2),[38],6.83
same,PRISMA enrichment of interactor (log2),[39],5.31
same,PRISMA enrichment of interactor (log2),[40],5.93
same,PRISMA enrichment of interactor (log2),[41],4.91
same,PRISMA enrichment of interactor (log2),[42],5.22
same,PRISMA enrichment of interactor (log2),[43],6.44
same,PRISMA enrichment of interactor (log2),[44],4.92
same,PRISMA enrichment of interactor (log2),[45],5.5
same,PRISMA enrichment of interactor (log2),[46],4.89
same,PRISMA enrichment of interactor (log2),[47],5.54
same,PRISMA enrichment of interactor (log2),[48],5.56
same,PRISMA enrichment of interactor (log2),[49],5.32
same,PRISMA enrichment of interactor (log2),[50],4.65
same,PRISMA enrichment of interactor (log2),[51],4.93
same,PRISMA enrichment of interactor (log2),[52],5.34
same,PRISMA enrichment of interactor (log2),[53],5.63
same,PRISMA enrichment of interactor (log2),[54],4.8
MITVLPKKAYLM [MTIF3],PRISMA enrichment of interactor (log2),[55],6.47
same,PRISMA enrichment of interactor (log2),[56],4.75
same,PRISMA enrichment of interactor (log2),[57],5.04
same,PRISMA enrichment of interactor (log2),[58],10
same,PRISMA enrichment of interactor (log2),[20],7.07
same,PRISMA enrichment of interactor (log2),[59],8.82
same,PRISMA enrichment of interactor (log2),[60],5.14
same,PRISMA enrichment of interactor (log2),[61],5.14
same,PRISMA enrichment of interactor (log2),[62],6.22
MASKALAAEKWPRSP [FAM63B],PRISMA enrichment of interactor (log2),[63],4.46
same,PRISMA enrichment of interactor (log2),[64],3.79
same,PRISMA enrichment of interactor (log2),[65],3.64
same,PRISMA enrichment of interactor (log2),[66],4.16
same,PRISMA enrichment of interactor (log2),[67],6.81
